Reference: the supplement of paper PMC10849652
The other results are listed elsewhere or left out. Residues, ends and D or L forms follow the SMILES beside them. *: point of attachment. Cbz = O=C(OCc1ccccc1)*

The chains behind the UniProt entries cited, without tags or fusion partners. Where a name states a change or a piece, a line headed by the entry shows the natural chain unless it says otherwise.
UniProt Q9H6K4: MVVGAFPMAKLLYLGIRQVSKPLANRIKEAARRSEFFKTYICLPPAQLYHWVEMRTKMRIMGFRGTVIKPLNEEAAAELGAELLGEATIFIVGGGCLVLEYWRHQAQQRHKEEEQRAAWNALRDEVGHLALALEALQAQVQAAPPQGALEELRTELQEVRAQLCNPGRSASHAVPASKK
UniProt P11940, whole entry, looked up: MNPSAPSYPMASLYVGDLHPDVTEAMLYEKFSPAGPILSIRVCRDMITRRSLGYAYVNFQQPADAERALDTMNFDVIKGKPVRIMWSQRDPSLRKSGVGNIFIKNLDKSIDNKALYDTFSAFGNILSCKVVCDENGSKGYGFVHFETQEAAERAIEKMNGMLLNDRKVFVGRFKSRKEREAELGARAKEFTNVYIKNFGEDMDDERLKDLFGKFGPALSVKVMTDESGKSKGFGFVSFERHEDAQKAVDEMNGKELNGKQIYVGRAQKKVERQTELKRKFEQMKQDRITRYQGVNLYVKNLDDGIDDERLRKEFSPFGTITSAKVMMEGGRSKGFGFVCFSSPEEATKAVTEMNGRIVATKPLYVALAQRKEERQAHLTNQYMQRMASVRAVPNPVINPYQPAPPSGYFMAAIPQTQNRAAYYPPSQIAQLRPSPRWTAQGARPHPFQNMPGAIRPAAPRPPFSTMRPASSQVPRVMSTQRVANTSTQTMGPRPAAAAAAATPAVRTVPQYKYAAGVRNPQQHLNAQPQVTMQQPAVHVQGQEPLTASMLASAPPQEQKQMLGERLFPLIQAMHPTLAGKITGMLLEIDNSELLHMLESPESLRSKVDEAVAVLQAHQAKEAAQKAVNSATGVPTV
UniProt Q9NTK5, whole entry, looked up: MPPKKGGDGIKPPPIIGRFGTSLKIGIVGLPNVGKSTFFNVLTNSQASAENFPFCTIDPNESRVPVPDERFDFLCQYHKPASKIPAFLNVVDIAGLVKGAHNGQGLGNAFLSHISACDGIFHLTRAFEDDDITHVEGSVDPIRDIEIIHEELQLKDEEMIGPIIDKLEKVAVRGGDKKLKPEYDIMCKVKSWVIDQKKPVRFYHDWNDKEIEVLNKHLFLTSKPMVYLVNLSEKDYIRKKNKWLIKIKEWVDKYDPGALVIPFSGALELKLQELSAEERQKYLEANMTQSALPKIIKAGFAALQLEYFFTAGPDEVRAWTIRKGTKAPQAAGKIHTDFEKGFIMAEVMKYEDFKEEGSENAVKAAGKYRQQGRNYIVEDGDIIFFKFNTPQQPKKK
UniProt Q96E22: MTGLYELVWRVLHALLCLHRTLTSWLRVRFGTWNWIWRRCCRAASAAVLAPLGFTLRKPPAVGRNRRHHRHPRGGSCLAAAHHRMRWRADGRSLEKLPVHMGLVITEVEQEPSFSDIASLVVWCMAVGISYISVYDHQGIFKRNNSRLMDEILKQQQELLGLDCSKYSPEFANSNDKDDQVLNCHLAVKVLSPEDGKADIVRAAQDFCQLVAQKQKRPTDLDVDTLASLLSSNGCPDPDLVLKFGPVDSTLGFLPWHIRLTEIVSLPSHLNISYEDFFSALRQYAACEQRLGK
UniProt A8MXV4: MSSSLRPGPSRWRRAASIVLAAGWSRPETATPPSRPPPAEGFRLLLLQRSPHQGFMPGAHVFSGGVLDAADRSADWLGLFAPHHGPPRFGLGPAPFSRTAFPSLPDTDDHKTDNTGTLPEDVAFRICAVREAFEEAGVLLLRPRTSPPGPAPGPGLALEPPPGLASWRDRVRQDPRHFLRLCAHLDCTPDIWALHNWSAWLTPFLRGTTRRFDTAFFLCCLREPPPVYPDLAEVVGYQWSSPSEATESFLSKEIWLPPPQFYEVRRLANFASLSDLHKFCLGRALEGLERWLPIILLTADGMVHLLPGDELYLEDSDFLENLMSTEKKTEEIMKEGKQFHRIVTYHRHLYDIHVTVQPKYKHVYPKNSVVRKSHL
UniProt P50583: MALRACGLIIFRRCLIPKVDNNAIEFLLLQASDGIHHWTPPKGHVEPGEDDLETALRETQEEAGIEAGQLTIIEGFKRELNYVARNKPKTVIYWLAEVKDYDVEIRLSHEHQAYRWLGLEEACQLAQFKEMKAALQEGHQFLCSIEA
UniProt Q9BSD7: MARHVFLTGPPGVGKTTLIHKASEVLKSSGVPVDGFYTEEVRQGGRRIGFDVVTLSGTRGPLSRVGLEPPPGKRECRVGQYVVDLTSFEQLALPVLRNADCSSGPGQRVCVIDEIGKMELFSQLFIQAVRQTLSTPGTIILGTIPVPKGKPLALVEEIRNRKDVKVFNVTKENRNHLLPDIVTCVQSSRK
UniProt Q99571: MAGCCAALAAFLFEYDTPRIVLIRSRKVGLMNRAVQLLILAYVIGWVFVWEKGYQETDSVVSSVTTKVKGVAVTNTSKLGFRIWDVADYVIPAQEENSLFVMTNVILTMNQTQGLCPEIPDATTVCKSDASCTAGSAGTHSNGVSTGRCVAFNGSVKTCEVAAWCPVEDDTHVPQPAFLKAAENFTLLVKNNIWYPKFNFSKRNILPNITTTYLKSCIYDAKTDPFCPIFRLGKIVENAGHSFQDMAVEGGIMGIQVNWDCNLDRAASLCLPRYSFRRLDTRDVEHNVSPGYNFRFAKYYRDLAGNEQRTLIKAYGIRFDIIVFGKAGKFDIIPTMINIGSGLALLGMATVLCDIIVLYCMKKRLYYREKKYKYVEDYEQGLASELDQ
UniProt P61970, whole entry, looked up: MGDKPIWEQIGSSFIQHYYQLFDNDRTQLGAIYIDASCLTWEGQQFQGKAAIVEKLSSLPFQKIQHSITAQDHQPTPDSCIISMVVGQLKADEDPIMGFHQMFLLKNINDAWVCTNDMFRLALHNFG
UniProt Q96SU4: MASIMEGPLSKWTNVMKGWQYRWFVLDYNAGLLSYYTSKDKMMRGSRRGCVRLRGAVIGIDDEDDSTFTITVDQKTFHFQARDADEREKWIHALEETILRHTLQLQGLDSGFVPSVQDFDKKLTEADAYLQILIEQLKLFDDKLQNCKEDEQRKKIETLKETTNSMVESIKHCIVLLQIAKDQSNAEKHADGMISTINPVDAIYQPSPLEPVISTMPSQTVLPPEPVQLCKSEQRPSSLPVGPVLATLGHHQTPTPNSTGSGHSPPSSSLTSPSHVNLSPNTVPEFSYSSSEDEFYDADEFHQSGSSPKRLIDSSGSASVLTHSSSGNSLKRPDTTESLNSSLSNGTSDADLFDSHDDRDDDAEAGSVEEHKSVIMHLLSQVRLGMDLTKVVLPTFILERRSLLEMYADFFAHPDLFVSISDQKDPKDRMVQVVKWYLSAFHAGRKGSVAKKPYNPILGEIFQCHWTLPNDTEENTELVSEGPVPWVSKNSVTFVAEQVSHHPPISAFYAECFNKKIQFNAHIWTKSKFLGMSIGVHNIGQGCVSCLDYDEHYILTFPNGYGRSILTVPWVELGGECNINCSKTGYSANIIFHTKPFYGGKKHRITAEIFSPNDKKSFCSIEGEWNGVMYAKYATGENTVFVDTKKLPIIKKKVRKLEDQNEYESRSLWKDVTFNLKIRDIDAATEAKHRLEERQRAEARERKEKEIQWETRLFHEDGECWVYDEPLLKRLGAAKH
UniProt P49902: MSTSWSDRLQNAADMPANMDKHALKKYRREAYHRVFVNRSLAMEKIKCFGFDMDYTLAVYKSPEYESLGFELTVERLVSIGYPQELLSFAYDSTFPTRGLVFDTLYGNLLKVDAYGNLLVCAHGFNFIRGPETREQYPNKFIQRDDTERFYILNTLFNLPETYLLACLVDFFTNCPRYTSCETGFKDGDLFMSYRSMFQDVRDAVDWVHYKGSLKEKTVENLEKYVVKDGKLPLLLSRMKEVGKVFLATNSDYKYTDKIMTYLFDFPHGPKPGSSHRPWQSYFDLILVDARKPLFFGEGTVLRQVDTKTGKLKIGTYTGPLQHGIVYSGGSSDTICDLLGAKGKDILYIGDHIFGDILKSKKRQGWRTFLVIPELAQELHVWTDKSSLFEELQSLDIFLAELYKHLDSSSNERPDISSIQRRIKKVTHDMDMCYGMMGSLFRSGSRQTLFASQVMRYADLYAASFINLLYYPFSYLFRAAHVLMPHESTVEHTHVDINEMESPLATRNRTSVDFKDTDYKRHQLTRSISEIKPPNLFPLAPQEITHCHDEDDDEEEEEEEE
UniProt Q02218: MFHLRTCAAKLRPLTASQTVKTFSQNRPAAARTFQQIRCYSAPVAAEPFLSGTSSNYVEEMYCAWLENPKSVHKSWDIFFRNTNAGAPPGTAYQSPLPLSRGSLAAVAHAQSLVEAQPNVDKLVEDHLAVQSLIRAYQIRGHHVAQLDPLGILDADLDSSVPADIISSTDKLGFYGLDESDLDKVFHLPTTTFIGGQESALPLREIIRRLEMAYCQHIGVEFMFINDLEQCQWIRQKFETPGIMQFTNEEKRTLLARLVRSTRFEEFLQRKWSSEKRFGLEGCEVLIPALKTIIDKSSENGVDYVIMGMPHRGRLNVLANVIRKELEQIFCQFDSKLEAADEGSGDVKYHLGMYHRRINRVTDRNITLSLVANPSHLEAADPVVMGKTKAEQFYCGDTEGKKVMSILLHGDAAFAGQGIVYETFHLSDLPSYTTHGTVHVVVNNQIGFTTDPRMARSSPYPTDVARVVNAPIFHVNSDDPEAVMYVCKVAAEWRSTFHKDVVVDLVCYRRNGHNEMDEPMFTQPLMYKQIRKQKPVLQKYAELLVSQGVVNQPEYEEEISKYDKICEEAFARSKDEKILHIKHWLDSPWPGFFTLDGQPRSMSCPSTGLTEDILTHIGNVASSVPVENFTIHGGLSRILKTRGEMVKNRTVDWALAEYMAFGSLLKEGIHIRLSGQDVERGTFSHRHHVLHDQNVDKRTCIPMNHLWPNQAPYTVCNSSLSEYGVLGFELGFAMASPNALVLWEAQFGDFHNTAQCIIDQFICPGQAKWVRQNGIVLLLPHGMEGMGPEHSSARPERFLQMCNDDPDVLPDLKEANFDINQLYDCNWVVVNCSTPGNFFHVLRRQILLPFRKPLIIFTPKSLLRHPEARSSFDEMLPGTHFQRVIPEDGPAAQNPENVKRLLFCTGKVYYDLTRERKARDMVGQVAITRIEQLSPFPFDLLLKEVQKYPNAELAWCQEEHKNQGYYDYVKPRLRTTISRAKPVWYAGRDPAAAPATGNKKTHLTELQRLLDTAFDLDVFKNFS
UniProt Q86UY8: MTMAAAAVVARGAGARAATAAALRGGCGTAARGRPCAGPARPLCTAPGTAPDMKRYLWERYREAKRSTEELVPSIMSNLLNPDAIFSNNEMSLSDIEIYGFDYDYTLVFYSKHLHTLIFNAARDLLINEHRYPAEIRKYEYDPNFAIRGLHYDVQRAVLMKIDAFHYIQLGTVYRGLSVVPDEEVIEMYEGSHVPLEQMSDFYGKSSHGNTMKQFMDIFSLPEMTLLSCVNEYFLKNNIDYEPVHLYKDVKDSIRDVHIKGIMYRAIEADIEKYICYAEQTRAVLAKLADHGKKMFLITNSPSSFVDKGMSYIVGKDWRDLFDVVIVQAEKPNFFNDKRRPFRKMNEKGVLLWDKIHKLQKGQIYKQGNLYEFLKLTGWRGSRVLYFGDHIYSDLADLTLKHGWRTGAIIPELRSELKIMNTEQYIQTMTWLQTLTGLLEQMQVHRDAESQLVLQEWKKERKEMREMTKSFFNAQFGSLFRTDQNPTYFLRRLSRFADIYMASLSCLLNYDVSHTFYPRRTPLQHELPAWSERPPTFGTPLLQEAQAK
UniProt Q8NFH3: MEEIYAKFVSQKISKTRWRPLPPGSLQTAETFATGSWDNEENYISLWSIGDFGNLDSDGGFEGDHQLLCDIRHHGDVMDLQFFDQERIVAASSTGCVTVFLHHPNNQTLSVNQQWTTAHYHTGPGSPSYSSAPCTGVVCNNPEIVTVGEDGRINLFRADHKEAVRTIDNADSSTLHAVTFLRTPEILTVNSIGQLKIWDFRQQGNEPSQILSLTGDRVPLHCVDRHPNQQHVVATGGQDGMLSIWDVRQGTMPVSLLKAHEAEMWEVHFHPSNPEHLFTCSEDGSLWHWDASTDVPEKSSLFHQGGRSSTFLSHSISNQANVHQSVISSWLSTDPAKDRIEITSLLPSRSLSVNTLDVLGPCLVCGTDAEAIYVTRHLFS

Tests used:
Assay in all cases: log2 fold change, soluble protein after heating vs DMSO (PISA); higher = thermal stabilisation; K562 cells, 10 uM, 30 min; active = over 0.2 and 3.5 SD of the protein, either way, in both replicates (recomputed)
IRAK-1-4 Inhibitor I = compound: C1COCCN1CCN2C3=CC=CC=C3N=C2NC(=O)C4=CC(=CC=C4)[N+](=O)[O-] [IRAK-1-4 Inhibitor I]
Summary of the method: (§1)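 K562 cells (2×10^6 cells/mL) were treated with 10 μM compound for 30 min, and aliquots were heated for 3 min over 48°C-58°C. Pooled aliquots were extracted in PBS with 0.5% NP-40 at 4°C, and the supernatant after 21,000xg for 90 min was measured by TMTpro 16plex LC-MS/MS with channel sums equalised. Reported thermal stability, relative to control samples and from duplicates, is a log2 fold change.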

ibrutinib = compound: C=CC(=O)N1CCC[C@@H](n2nc(-c3ccc(Oc4ccccc4)cc3)c3c(N)ncnc32)C1 [ibrutinib]
Summary of the method: as §1

[1] = compound: CC(=O)c1cnc2ccc(-c3cc(Cl)c(O)c(Cl)c3)nc2c1N[C@H]1CC[C@H](CN(C)C)CC1
Summary of the method: as §1

ralimetinib = compound: CC(C)(C)Cn1c(N)nc2ccc(-c3[nH]c(C(C)(C)C)nc3-c3ccc(F)cc3)nc21 [ralimetinib]
Summary of the method: as §1

[2] = compound: CC(C)(O)CC(=O)NCCn1ccc2ncnc(Nc3ccc(Oc4cccc(C(F)(F)F)c4)c(Cl)c3)c21
Summary of the method: as §1

[3] = compound: CC(C)C1=C2N=C(C=C(N2N=C1)NCC3=CC=CC=C3)NCCCCCCN
Summary of the method: as §1

[4] = compound: CC(C)C[C@@H](C=O)NC(=O)[C@H](CC(C)C)NC(=O)[C@H](CC(C)C)NC(=O)OCc1ccccc1
Summary of the method: as §1

pinometostat = compound: CC(C)N(C[C@H]1O[C@@H](n2cnc3c(N)ncnc32)[C@H](O)[C@@H]1O)[C@H]1C[C@@H](CCc2nc3cc(C(C)(C)C)ccc3[nH]2)C1 [pinometostat]
Summary of the method: as §1

[5] = compound: CC1=C(C(CC(=O)N1)C2=CC=C(C=C2)C(F)(F)F)C(=O)NC3=C(C=C4C(=C3)C=NN4)F
Summary of the method: as §1

[6] = compound: CC1=C(C2=C(C=C1)C(=O)C3=CC=CC=C3N2CCCN)C
Summary of the method: as §1

[7] = compound: CC1=C(C=C(C=C1)NC(=O)C2=CC(=CC=C2)C(C)(C)C#N)NC3=CC4=C(C=C3)N=CN(C4=O)C
Summary of the method: as §1

[8] = compound: CC1=C(C=C(C=C1)NC(=O)C2=CC(=CC=C2)N(C)C)NC(=O)C3=CC=C(C=C3)O
Summary of the method: as §1

[9] = compound: CC1=CC=C(C=C1)SC2=C3C=C(SC3=CN=C2)C(=O)N
Summary of the method: as §1

[10] = compound: CC1=NC(=CC=C1)C2=C(N=C(N2)C(C)(C)C)C3=CC4=NC=CN=C4C=C3
Summary of the method: as §1

Nexturastat A = compound: CCCCN(Cc1ccc(C(=O)NO)cc1)C(=O)Nc1ccccc1 [Nexturastat A]
Summary of the method: as §1

vemurafenib = compound: CCCS(=O)(=O)Nc1ccc(F)c(C(=O)c2c[nH]c3ncc(-c4ccc(Cl)cc4)cc23)c1F [vemurafenib]
Summary of the method: as §1

[11] = compound: CCCS(=O)(=O)Nc1ccc(F)c(C(=O)c2c[nH]c3ncc(Cl)cc23)c1F
Summary of the method: as §1

[12] = compound: CCCc1cc(C)[nH]c(=O)c1CNC(=O)c1cc(-c2ccnc(N3CCN(C)CC3)c2)cc2c1cnn2C(C)C
Summary of the method: as §1

givinostat = compound: CCN(CC)Cc1ccc2cc(COC(=O)Nc3ccc(C(=O)NO)cc3)ccc2c1 [givinostat]
Summary of the method: as §1

barasertib = compound: CCN(CCCOc1ccc2c(Nc3cc(CC(=O)Nc4cccc(F)c4)[nH]n3)ncnc2c1)CCOP(=O)(O)O [barasertib]
Summary of the method: as §1

Measured: log2 fold change

NUP188 (UniProt Q5SRE5)
inactive: IRAK-1-4 Inhibitor I -0.059 | ibrutinib -0.03 | [1] -0.071 | ralimetinib 0.019 | [2] -0.064 | [3] -0.14 | [4] 0.034 | pinometostat 0.005 | [5] -0.001 | [6] 0.023 | [7] 0.006 | [8] -0.021 | [9] 0.031 | [10] -0.028 | Nexturastat A 0.038 | vemurafenib 0.053 | [11] 0.059 | [12] 0.005 | givinostat 0.012 | barasertib 0.185

OPA3 (UniProt Q9H6K4)
inactive: IRAK-1-4 Inhibitor I -0.014 | ibrutinib -0.045 | [1] 0.022 | ralimetinib -0.09 | [2] 0.017 | [3] -0.082 | [4] 0.089 | pinometostat 0.032 | [5] 0.164 | [6] -0.076 | [7] -0.06 | [8] 0.084 | [9] 0.088 | [10] 0.088 | Nexturastat A -0.074 | vemurafenib -0.106 | [11] -0.062 | [12] 0.019 | givinostat 0.093 | barasertib -0.044

PABPC1 (UniProt P11940)
inactive: IRAK-1-4 Inhibitor I -0.057 | ibrutinib 0.055 | [1] 0 | ralimetinib 0.036 | [2] 0.06 | [3] 0.015 | [4] 0.015 | pinometostat 0.025 | [5] 0.021 | [6] -0.161 | [7] 0.043 | [8] 0.048 | [9] -0.053 | [10] 0.046 | Nexturastat A 0.08 | vemurafenib -0.027 | [11] -0.031 | [12] 0.026 | givinostat -0.045 | barasertib -0.051

OLA1 (UniProt Q9NTK5)
inactive: IRAK-1-4 Inhibitor I 0.04 | ibrutinib -0.008 | [1] -0.019 | ralimetinib -0.058 | [2] -0.056 | [3] 0.032 | [4] 0.023 | pinometostat -0.018 | [5] 0.005 | [6] 0.008 | [7] -0.004 | [8] -0.01 | [9] 0.036 | [10] 0.035 | Nexturastat A -0.099 | vemurafenib 0.022 | [11] 0.068 | [12] -0.015 | givinostat -0.018 | barasertib 0.006

NUS1 (UniProt Q96E22)
inactive: IRAK-1-4 Inhibitor I 0.08 | ibrutinib 0.016 | [1] 0.049 | ralimetinib -0.099 | [2] 0.013 | [3] 0.042 | [4] 0.062 | pinometostat 0.084 | [5] -0.078 | [6] 0.032 | [7] -0.014 | [8] 0.002 | [9] 0.073 | [10] -0.047 | Nexturastat A -0.131 | vemurafenib -0.036 | [11] -0.038 | [12] -0.139 | givinostat -0.081 | barasertib 0.05

NUDT19 (UniProt A8MXV4)
inactive: IRAK-1-4 Inhibitor I 0.011 | ibrutinib -0.019 | [1] 0.048 | ralimetinib -0.047 | [2] 0 | [3] 0.061 | [4] -0.022 | pinometostat -0.074 | [5] -0.025 | [6] -0.028 | [7] -0.014 | [8] 0.02 | [9] 0.008 | [10] 0.003 | Nexturastat A -0.146 | vemurafenib 0.036 | [11] 0.033 | [12] 0.013 | givinostat 0.011 | barasertib 0.007

NUDT2 (UniProt P50583)
inactive: IRAK-1-4 Inhibitor I 0.051 | ibrutinib 0.052 | [1] -0.089 | ralimetinib 0.076 | [2] -0.03 | [3] -0.159 | [4] -0.017 | pinometostat -0.126 | [5] -0.129 | [6] -0.102 | [7] 0.008 | [8] -0.003 | [9] 0.019 | [10] 0 | Nexturastat A 0.032 | vemurafenib 0.02 | [11] 0.048 | [12] 0.01 | givinostat 0.17 | barasertib 0.012

NTPCR (UniProt Q9BSD7)
inactive: IRAK-1-4 Inhibitor I 0.022 | ibrutinib 0.004 | [1] -0.016 | ralimetinib -0.033 | [2] -0.074 | [3] -0.049 | [4] -0.005 | pinometostat -0.029 | [5] 0.013 | [6] 0.028 | [7] 0.021 | [8] -0.003 | [9] 0.043 | [10] 0.096 | Nexturastat A -0.11 | vemurafenib 0.045 | [11] 0.023 | [12] -0.037 | givinostat 0.002 | barasertib -0.009

Quoted at random: 2 entries already listed.
NUS1 (UniProt Q96E22)
inactive: IRAK-1-4 Inhibitor I 0.08 | ibrutinib 0.016 | [1] 0.049 | ralimetinib -0.099 | [2] 0.013 | [3] 0.042 | [4] 0.062 | pinometostat 0.084 | [5] -0.078 | [6] 0.032 | [7] -0.014 | [8] 0.002 | [9] 0.073 | [10] -0.047 | Nexturastat A -0.131 | vemurafenib -0.036 | [11] -0.038 | [12] -0.139 | givinostat -0.081 | barasertib 0.05

OLA1 (UniProt Q9NTK5)
inactive: IRAK-1-4 Inhibitor I 0.04 | ibrutinib -0.008 | [1] -0.019 | ralimetinib -0.058 | [2] -0.056 | [3] 0.032 | [4] 0.023 | pinometostat -0.018 | [5] 0.005 | [6] 0.008 | [7] -0.004 | [8] -0.01 | [9] 0.036 | [10] 0.035 | Nexturastat A -0.099 | vemurafenib 0.022 | [11] 0.068 | [12] -0.015 | givinostat -0.018 | barasertib 0.006

(cont.)

P2RX4 isoform 2 (UniProt Q99571)
inactive: IRAK-1-4 Inhibitor I -0.055 | ibrutinib 0.056 | [1] -0.02 | ralimetinib -0.035 | [2] 0.022 | [3] 0.012 | [4] 0.111 | pinometostat -0.069 | [5] -0.141 | [6] -0.171 | [7] -0.095 | [8] -0.042 | [9] 0.038 | [10] 0.039 | Nexturastat A 0.009 | vemurafenib -0.001 | [11] -0.224 | [12] -0.11 | givinostat -0.003 | barasertib 0.066

NUTF2 (UniProt P61970)
inactive: IRAK-1-4 Inhibitor I 0.078 | ibrutinib -0.061 | [1] 0 | ralimetinib -0.159 | [2] -0.127 | [3] 0.017 | [4] -0.077 | pinometostat 0.012 | [5] -0.032 | [6] 0.163 | [7] -0.068 | [8] -0.122 | [9] 0.052 | [10] -0.008 | Nexturastat A -0.061 | vemurafenib 0.003 | [11] 0.037 | [12] 0.019 | givinostat -0.234 | barasertib 0.039

OSBPL9 (UniProt Q96SU4)
inactive: IRAK-1-4 Inhibitor I -0.045 | ibrutinib 0.002 | [1] -0.08 | ralimetinib 0.107 | [2] -0.012 | [3] -0.21 | [4] 0.191 | pinometostat 0.357 | [5] 0.047 | [6] -0.018 | [7] 0.025 | [8] 0.302 | [9] 0.063 | [10] -0.159 | Nexturastat A 0.224 | vemurafenib 0.046 | [11] 0.077 | [12] 0.081 | givinostat 0.026 | barasertib 0.01

NT5C2 (UniProt P49902)
inactive: IRAK-1-4 Inhibitor I 0.012 | ibrutinib -0.003 | [1] 0.007 | ralimetinib -0.061 | [2] 0.007 | [3] 0.083 | [4] -0.042 | pinometostat -0.066 | [5] -0.051 | [6] 0.061 | [7] -0.025 | [8] -0.002 | [9] 0.01 | [10] -0.028 | Nexturastat A -0.026 | vemurafenib -0.031 | [11] -0.016 | [12] 0.02 | givinostat -0.018 | barasertib -0.008

OGDH (UniProt Q02218)
inactive: IRAK-1-4 Inhibitor I -0.06 | ibrutinib 0.051 | [1] 0.03 | ralimetinib 0.032 | [2] -0.054 | [3] 0.041 | [4] 0.016 | pinometostat 0.032 | [5] -0.059 | [6] 0.127 | [7] 0.107 | [8] -0.082 | [9] -0.015 | [10] -0.022 | Nexturastat A 0.044 | vemurafenib -0.055 | [11] 0.018 | [12] 0.034 | givinostat 0.021 | barasertib -0.033

NT5DC3 (UniProt Q86UY8)
inactive: IRAK-1-4 Inhibitor I -0.032 | ibrutinib 0.023 | [1] -0.015 | ralimetinib -0.022 | [2] -0.067 | [3] 0.052 | [4] -0.014 | pinometostat -0.032 | [5] -0.015 | [6] 0.002 | [7] -0.017 | [8] -0.006 | [9] -0.022 | [10] 0.039 | Nexturastat A -0.06 | vemurafenib -0.045 | [11] -0.027 | [12] 0.009 | givinostat 0.007 | barasertib 0.014

NUP43 (UniProt Q8NFH3)
inactive: IRAK-1-4 Inhibitor I 0.055 | ibrutinib 0.02 | [1] -0.021 | ralimetinib -0.006 | [2] 0.031 | [3] 0.032 | [4] -0.007 | pinometostat -0.026 | [5] 0.016 | [6] -0.03 | [7] -0.014 | [8] -0.019 | [9] 0.029 | [10] 0.031 | Nexturastat A 0.019 | vemurafenib -0.016 | [11] 0.068 | [12] -0.003 | givinostat -0.103 | barasertib -0.004
